Values quoted from earlier work, collected in patent US6355670B1, “Use of estrogen antagonists and estrogen agonists in inhibiting pathological conditions” (Pfizer, Inc., priority 1996, dated 2002).
At least one compound was matched to its structure with a doubt left.

Key:
[1] = tested on: diabetic KK mice; details: daily administration
[2] = tested on: perfused rat lungs
[3] = tested on: isolated sheep lungs
[4] = tested on: C57BL/6J-ob/ob mice
[5] = tested on: C57BL /KsJ db/db mice

Compound: C[C@]12CC[C@@H]3c4ccc(O)cc4CC[C@H]3[C@@H]1CC[C@@H]2O [estradiol]
- blood glucose levels [1]: normalized the blood glucose levels
- glucosuria [1]: eliminated glucosuria
- vasopressor response to a thromboxane mimetic [2]: potentiates the vasopressor response
- hypoxic vasoconstrictive response [3]: attenuating the hypoxic vasoconstrictive response
- blood glucose levels [4]: lowered the blood glucose levels
- blood glucose levels [5]: lowered the blood glucose levels
